Reference: article PMC5421922
No constants are given. Whether binding was seen depends on the method and setting. Binding seen in cells or lysates may run through a third protein. Some results given as binding are weak or reduced against the parent protein; the word gives no strength.

Chains of the proteins cited; added tags and fusions are not shown.
UniProt P35222: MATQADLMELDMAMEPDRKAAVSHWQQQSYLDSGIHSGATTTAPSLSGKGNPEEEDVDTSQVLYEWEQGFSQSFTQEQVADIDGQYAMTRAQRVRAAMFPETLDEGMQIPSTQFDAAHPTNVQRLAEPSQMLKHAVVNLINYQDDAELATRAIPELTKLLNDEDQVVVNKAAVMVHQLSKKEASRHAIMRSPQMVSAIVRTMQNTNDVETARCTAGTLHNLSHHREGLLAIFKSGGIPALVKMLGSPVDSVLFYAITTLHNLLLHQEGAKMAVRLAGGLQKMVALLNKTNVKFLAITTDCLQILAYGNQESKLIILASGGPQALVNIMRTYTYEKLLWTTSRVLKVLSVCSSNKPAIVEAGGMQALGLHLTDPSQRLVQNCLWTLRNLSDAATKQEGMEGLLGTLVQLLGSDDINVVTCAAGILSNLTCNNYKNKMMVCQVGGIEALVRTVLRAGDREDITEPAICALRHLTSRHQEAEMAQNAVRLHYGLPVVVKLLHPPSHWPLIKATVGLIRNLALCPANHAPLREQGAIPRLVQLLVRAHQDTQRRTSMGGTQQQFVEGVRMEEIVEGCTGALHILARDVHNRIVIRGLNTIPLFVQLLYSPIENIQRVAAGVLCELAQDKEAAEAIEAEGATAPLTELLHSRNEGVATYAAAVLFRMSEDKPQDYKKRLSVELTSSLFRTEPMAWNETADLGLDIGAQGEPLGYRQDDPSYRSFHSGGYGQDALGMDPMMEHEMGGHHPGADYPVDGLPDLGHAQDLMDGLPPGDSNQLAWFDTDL
UniProt O95619: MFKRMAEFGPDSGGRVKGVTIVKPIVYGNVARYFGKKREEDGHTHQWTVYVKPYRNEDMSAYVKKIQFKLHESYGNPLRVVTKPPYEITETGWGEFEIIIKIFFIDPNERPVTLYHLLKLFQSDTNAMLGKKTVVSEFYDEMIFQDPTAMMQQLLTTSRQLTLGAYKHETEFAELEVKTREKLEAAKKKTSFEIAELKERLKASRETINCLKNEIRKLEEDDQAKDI

What was measured:
Flag tagged beta-catenin = Flag tagged beta-catenin (UniProt P35222); assay: co-IP; exogenously expressed Flag-beta-catenin and myc-YEATS4 in HPAC cells, immunoprecipitation assay
[1] = target: beta-catenin, endogenously expressed (human (endogenous in HPAC and Capan-1)) (UniProt P35222); assay: co-IP; endogenously expressed beta-catenin and YEATS4 in HPAC cells and Capan-1 cells
[2] = target: GST-beta-catenin fusion protein (UniProt P35222); assay: pull-down; 5 ug purified GST-beta-catenin incubated with 500 ug HPAC whole cell lysate (50 mM Tris-Cl pH 7.5, 150 mM NaCl, 0.1% NP40) at 4 C over night; captured on glutathione-Sepharose-4B beads; washed three times with lysis buffer; only the target purified

| binding (Flag tagged beta-catenin) | binding [1] | binding [2] | Substance |
| --- | --- | --- | --- |
| binds | – | – | myc tagged YEATS4 (from UniProt O95619 1-227) |
| – | binds | binds | YEATS4, endogenously expressed (from UniProt O95619 1-227) |
